Data: PubChem BioAssay AID248 (DTP/NCI, 2004)
The list is a part of this screen's results and no random one: it is rich in T/C values a quarter to a half above the control, in often repeated tests (any T/C) and in doses without a T/C. Other doses and runs of a compound stand elsewhere. T/C is the treated group as % of the vehicle group. Some doses have a count of surviving animals in place of a T/C: the source holds a T/C of zero for them, seemingly a mark for toxic or unscored doses. Some survivor counts are full or nearly so, which does not show that the dose was tolerated: the source hardly ever lists a survival T/C far under the control, and the zero likely stands for such cases as well. Counts of survivors are from the toxicity check (mostly the fifth day) where no day follows; animals may have died later. Schedule codes are those of the source, taken here to give the interval after Q, in days (D) or hours (H), and the number of doses after X. Some entries were tested several times; their values stand side by side, smallest first. Some schedule codes hold Z or #, which are not explained here. For survival time, this PubChem deposit counts one and a half times the control or more as active, and values a quarter to a half above the control carry no call in these data; other NCI protocols may use other cut-offs.

Test system: L1210 leukemia ip in BDF1 mice, survival T/C
Experiment: NCI In Vivo Anticancer Drug Screen. Data for tumor model L1210 Leukemia (intraperitoneal) in B6D2F1 (BDF1) mice
Conditions: T/C endpoint: mean survival time, higher T/C = longer survival
[1] = dose: 100.0 mg/kg/injection, schedule: Q01DX009 (ip), vehicle: Klucel (hydroxypropylcellulose) (HPC)
[2] = dose: 200.0 mg/kg/injection, schedule: Q01DX009 (ip), vehicle: Klucel (hydroxypropylcellulose) (HPC)
[3] = dose: 400.0 mg/kg/injection, schedule: Q01DX009 (ip), vehicle: Klucel (hydroxypropylcellulose) (HPC)
[4] = dose: 400.0 mg/kg/injection, schedule: Q01DX009 (ip), vehicle: saline
[5] = dose: 400.0 mg/kg/injection, schedule: Q04DX003 (ip), vehicle: saline
[6] = dose: 100.0 mg/kg/injection, schedule: Q04DX003 (ip), vehicle: Klucel (hydroxypropylcellulose) (HPC)
[7] = dose: 200.0 mg/kg/injection, schedule: Q04DX003 (ip), vehicle: Klucel (hydroxypropylcellulose) (HPC)
[8] = dose: 400.0 mg/kg/injection, schedule: Q04DX003 (ip), vehicle: Klucel (hydroxypropylcellulose) (HPC)

Structure (SMILES): O=NN(CCCl)C(=O)Nc1ccc(SCC(=O)O)cc1
- T/C (dose: 8.0 mg/kg/injection, schedule: Q01DX001 (ip), vehicle: carboxymethylcellulose (CMC)): 133 % of control
- T/C (dose: 12.0 mg/kg/injection, schedule: Q01DX001 (ip), vehicle: carboxymethylcellulose (CMC)): 130 % of control
- T/C (dose: 40.0 mg/kg/injection, schedule: Q01DX001 (ip), vehicle: carboxymethylcellulose (CMC)): 139 % of control
- survivor count (dose: 60.0 mg/kg/injection, schedule: Q01DX001 (ip), vehicle: carboxymethylcellulose (CMC)): 5 of 6
- survivor count (dose: 93.0 mg/kg/injection, schedule: Q01DX001 (ip), vehicle: carboxymethylcellulose (CMC)): 6 of 6
- survivor count (dose: 125.0 mg/kg/injection, schedule: Q01DX001 (ip), vehicle: carboxymethylcellulose (CMC)): 2 of 6
- survivor count (dose: 187.0 mg/kg/injection, schedule: Q01DX001 (ip), vehicle: carboxymethylcellulose (CMC)): 0 of 6
- survivor count (dose: 250.0 mg/kg/injection, schedule: Q01DX001 (ip), vehicle: carboxymethylcellulose (CMC)): 0 of 6
- survivor count (dose: 375.0 mg/kg/injection, schedule: Q01DX001 (ip), vehicle: carboxymethylcellulose (CMC)): 0 of 6
- survivor count (dose: 500.0 mg/kg/injection, schedule: Q01DX001 (ip), vehicle: carboxymethylcellulose (CMC)): 0 of 6

Structure (SMILES): C/C(=N/NC(=O)C1CCCO1)c1ccc(C)cc1 (stereo not drawn)
- survivor count (dose: 50.0 mg/kg/injection, schedule: Q01DX009 (ip), vehicle: Klucel (hydroxypropylcellulose) (HPC)): 4 of 6
- survivor count [1]: 4 of 6
- survivor count [2]: 0 of 6
- survivor count [3]: 0 of 6

Structure (SMILES): O=C1C(=C(C(F)(F)F)C(F)(F)F)CCc2ccccc21
- survivor count [2]: 5 of 6
- survivor count (dose: 400.0 mg/kg/injection, schedule: Q01DX001 (ip), vehicle: Klucel (hydroxypropylcellulose) (HPC)): 1 of 6

Structure (SMILES): Oc1ccc(CNCCNCCNCc2ccc(O)cc2)cc1
- survivor count (dose: 200.0 mg/kg/injection, schedule: Q04DX003 (ip), vehicle: saline): 3 of 6
- survivor count [4]: 0 of 6
- survivor count [5]: 0 of 6

Structure (SMILES): N#Cc1nc2c3ccccc3c3ccccc3c2nc1C#N
- survivor count (dose: 150.0 mg/kg/injection, schedule: Q01DX009 (ip), vehicle: other): 6 of 6

Structure (SMILES): ClCc1ccc(-c2ccc(CCl)cc2)cc1
- survivor count (dose: 600.0 mg/kg/injection, schedule: Q01DX015 (ip), vehicle: carboxymethylcellulose (CMC)): 6 of 6

Structure (SMILES): O=C(O)C1=CC(O)C(O)C(O)C1 (stereo not drawn)
- survivor count (dose: 400.0 mg/kg/injection, schedule: Q01DX009 (ip), vehicle: saline sonified): 6 of 6

Structure (SMILES): O=C(CCCC(=O)N/N=C/c1ccc(Cl)cc1)N/N=C\c1ccc(Cl)cc1
- survivor count (dose: 100.0 mg/kg/injection, schedule: Q01DX001 (ip), vehicle: other): 4 of 4

Structure (SMILES): CN(C)Cc1ccc(N)cc1
- survivor count (dose: 200.0 mg/kg/injection, schedule: Q01DX009 (ip), vehicle: water): 4 of 6
- survivor count (dose: 400.0 mg/kg/injection, schedule: Q04DX003 (ip), vehicle: water): 0 of 6

Structure (SMILES): O=C(c1ccccc1)c1cc(Cl)ccc1N1C(=O)C=CC1=O
- survivor count (dose: 50.0 mg/kg/injection, schedule: Q04DX002 (ip), vehicle: saline with Tween-80): 0 of 3
- survivor count (dose: 100.0 mg/kg/injection, schedule: Q04DX002 (ip), vehicle: saline with Tween-80): 0 of 3
- survivor count (dose: 200.0 mg/kg/injection, schedule: Q04DX002 (ip), vehicle: saline with Tween-80): 0 of 3
- survivor count (dose: 400.0 mg/kg/injection, schedule: Q04DX002 (ip), vehicle: saline with Tween-80): 0 of 3

Structure (SMILES): O/N=C1\CCCc2sccc21
- survivor count [1]: 6 of 6
- survivor count [2]: 6 of 6
- survivor count [3]: 4 of 6

Structure (SMILES): CCCCOC(=O)CSSCC(=O)OCCCC
- survivor count (dose: 400.0 mg/kg/injection, schedule: Q04DX003 (ip), vehicle: saline with Tween-80): 6 of 6

Structure (SMILES): CCCCNC(c1ccc(C[N+]2(C)CCCC2)cc1)C(Cl)(Cl)Cl (stereo not drawn)
- survivor count (dose: 40.0 mg/kg/injection, schedule: Q01DX001 (ip), vehicle: saline): 2 of 4
- survivor count (dose: 80.0 mg/kg/injection, schedule: Q01DX001 (ip), vehicle: saline): 1 of 4
- survivor count (dose: 100.0 mg/kg/injection, schedule: Q01DX001 (ip), vehicle: saline): 1 of 4
- survivor count (dose: 200.0 mg/kg/injection, schedule: Q01DX001 (ip), vehicle: saline): 0 of 4
- survivor count (dose: 400.0 mg/kg/injection, schedule: Q01DX001 (ip), vehicle: saline): 0 of 4

Structure (SMILES): C=CC[N+](CCO)(CCO)CCCCCCCCCCCCCCCCCC
- survivor count (dose: 50.0 mg/kg/injection, schedule: Q04DX002 (ip), vehicle: saline): 0 of 3
- survivor count (dose: 100.0 mg/kg/injection, schedule: Q04DX002 (ip), vehicle: saline): 2 of 3
- survivor count (dose: 200.0 mg/kg/injection, schedule: Q04DX002 (ip), vehicle: saline): 0 of 3
- survivor count (dose: 400.0 mg/kg/injection, schedule: Q04DX002 (ip), vehicle: saline): 0 of 3

Structure (SMILES): C=C1C(=O)OC2C3=C(C)C(=O)CC3C3(C)CC3C12 (stereo not drawn)
- survivor count (dose: 100.0 mg/kg/injection, schedule: Q01DX001 (ip), vehicle: water): 2 of 6
- survivor count (dose: 200.0 mg/kg/injection, schedule: Q01DX001 (ip), vehicle: water): 0 of 6

Structure (SMILES): CCCC[n+]1cccc2ccccc21
- survivor count (dose: 100.0 mg/kg/injection, schedule: Q01DX001 (ip), vehicle: Klucel (hydroxypropylcellulose) (HPC)): 1 of 6
- survivor count (dose: 200.0 mg/kg/injection, schedule: Q01DX001 (ip), vehicle: carboxymethylcellulose (CMC)): 0 of 6
- survivor count (dose: 400.0 mg/kg/injection, schedule: Q01DX001 (ip), vehicle: carboxymethylcellulose (CMC)): 0 of 6

Structure (SMILES): CC1CN=C(c2ccc(NC(=O)C3CCC(C(=O)Nc4ccc(C5=NCC(C)N5)cc4)CC3)cc2)N1 (stereo not drawn)
- survivor count (dose: 125.0 mg/kg/injection, schedule: Q01DX015 (ip), vehicle: methylcellulose (MC)): 6 of 6
- survivor count (dose: 250.0 mg/kg/injection, schedule: Q01DX015 (ip), vehicle: methylcellulose (MC)): 3 of 6

Structure (SMILES): c1cc2c(cc1-c1nnc(-c3ccc4c(c3)OCO4)nn1)OCO2
- survivor count (dose: 100.0 mg/kg/injection, schedule: Q01DX001 (ip), vehicle: saline with Tween-80): 6 of 6
- survivor count (dose: 200.0 mg/kg/injection, schedule: Q01DX001 (ip), vehicle: saline with Tween-80): 6 of 6

Structure (SMILES): NC1CCC(CC2CCCCC2)CC1 (stereo not drawn)
- survivor count [1]: 3 of 6
- survivor count [6]: 6 of 6
- survivor count [7]: 0 of 6
- survivor count [8]: 0 of 6

Structure (SMILES): O=[As](O)(O)c1ccc(OCCO)cc1
- survivor count [4]: 2 of 6

Structure (SMILES): COc1cccc2c1C(=O)c1c(O)c3c(c(O)c1C2=O)C[C@@](O)(C(=O)COC(C)=O)C[C@@H]3OC1CC(N)C(O)C(C)O1 (stereo partly drawn)
- T/C (dose: 1.0 mg/kg/injection, schedule: Q04DX003 (ip), vehicle: saline): 132 % of control
- T/C (dose: 1.1 mg/kg/injection, schedule: Q04DX003 (ip), vehicle: saline): 130 and 138 % of control
- T/C (dose: 1.5 mg/kg/injection, schedule: Q04DX003 (ip), vehicle: saline): 134 % of control
- T/C (dose: 1.6 mg/kg/injection, schedule: Q04DX003 (ip), vehicle: saline): 130 % of control
- T/C (dose: 2.3 mg/kg/injection, schedule: Q04DX003 (ip), vehicle: saline): 142 % of control

Structure (SMILES): COc1cc(C=C(C#N)C#N)cc(I)c1O
- survivor count [6]: 2 of 6 and 3 of 6
- survivor count [7]: 0 of 6
- survivor count [8]: 0 of 6

Structure (SMILES): CO/[N+]([O-])=C\C(=O)N/C=C/C(=O)O
- survivor count (dose: 30.0 mg/kg/injection, schedule: Q01DX Z (ip), vehicle: carboxymethylcellulose (CMC)): 2 of 6
- survivor count (dose: 45.0 mg/kg/injection, schedule: Q01DX Z (ip), vehicle: carboxymethylcellulose (CMC)): 0 of 6

Structure (SMILES): CC1=CP(=O)(O)CC1
- survivor count [5]: 1 of 6

Structure (SMILES): CCCCCCCCCCCCCCCCCc1nc2nc(Cl)c(Cl)nc2[nH]1
- survivor count (dose: 200.0 mg/kg/injection, schedule: Q04DX003 (ip), vehicle: saline with Tween-80): 6 of 6
